# From PubChem BioAssay AID493014 (National Center for Advancing Translational Sciences (NCATS), 2011)
# Some of the results follow. These are further read-outs of the screen, such as a control signal, another cell line or another target. No call is given for them. The list favours compounds with an active or inconclusive main result. The note in brackets gives the kind of curve behind each potency; many fits are weak.
# Assay: qHTS Assay to Find Inhibitors of Chronic Active B-Cell Receptor Signaling
# Details: ABC-DLBCL IkBa-CBG/CBR reporter, luminescence ratio (green luciferase fused to IkBa over red control in TMD8 lymphoma cells), 4 h
# Summary of the method: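 TMD8 human ABC-DLBCL cells with doxycycline-inducible IκBα–green luciferase fusion and unfused red luciferase, in 0.5% FBS medium; compounds up to 46 uM, 4 h at 37C. Green/red luminescence ratio, filter-overlap corrected, fitted to concentration-response curves.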
# [1] = measured here: CBR red luminescence, cell number
# [2] = measured here: IkBa-CBG green luminescence
SMILES,AC50 [1],AC50 [2]
Cc1sc2nc(-c3ccccc3)oc(=O)c2c1C,"0.562 µM [falling, full curve]",
COc1ccc(NC(=O)CCCC(=O)c2ccccc2)cc1,"35.5 µM [rising, single point]",
Cc1ccn2c(NC(=O)C(C)(C)Oc3ccc(Cl)cc3)c(-c3cccs3)nc2c1,"5.8 µM [rising, partial curve, poor fit]",
COc1ccc(C(=O)N/N=C/c2ccc(OC)c(CN3CCCc4ccccc43)c2)cc1,"16.4 µM [falling, single point]",
CCCc1nnc(NC(=S)Nc2ccccc2)s1,"3.55 µM [falling, full curve]","7.08 µM [falling, partial curve]"
CCOC(=O)C1=NNC2(c3ccc(Cl)cc3)C(=O)N(c3ccc(C)cc3)C(=O)C12 (configuration not stated),"9.2 µM [rising, partial curve, poor fit]",
Cc1ccccc1C(=O)c1cccn1CC(=O)NC(C)c1ccc2c(c1)OCCO2 (configuration not stated),"25.1 µM [falling, single point]",
CCOC(=O)c1nc2c(ccc3ccccc32)cc1C,"17.8 µM [rising, partial curve, poor fit]",
NC(N)=Nc1nc(-c2ccccc2)c2cc(F)ccc2n1,"15.8 µM [falling, partial curve, poor fit]",
Clc1ccccc1OCc1nn2c(-c3ccncc3)nnc2s1,,"3.66 µM [rising, partial curve, poor fit]"
CC(C)CC(=O)NC(=S)Nc1ccc(N2CCN(C(=O)c3cccs3)CC2)cc1,"0.0891 µM [falling, full curve, poor fit]",
N#Cc1c(C(F)(F)F)cc(-c2ccco2)nc1SCc1ccncc1,"0.562 µM [falling, partial curve, poor fit]",
O=[N+]([O-])c1ccc(Nc2ccccc2O)c2nonc12,"35.5 µM [falling, single point]",
CCCC12CN3CC(C)(CN(C1)C31CCCCC1)C2=O,"25.9 µM [rising, single point]",
O=C(NCCN1C(=O)S/C(=C\c2ccc(Cl)c([N+](=O)[O-])c2)C1=O)C1=COCCO1,"20.6 µM [falling, partial curve]",
O=C(NC1(C(=O)NC2CCCCC2)CCCCC1)c1ccc2c(c1)OCO2,"1.84 µM [rising, full curve, poor fit]",
CN(C)CCCN(C(=O)COc1ccccc1)c1nc2ccc(F)cc2s1,"35.5 µM [falling, single point]",
CN1CCN(c2ccccc2NC(=O)c2ccc(N3CCCCC3)c([N+](=O)[O-])c2)CC1,"8.91 µM [falling, partial curve, poor fit]",
COc1ccc(S(=O)(=O)N2CCCCCC2)cc1C(=O)Nc1cccc(C)n1,"8.91 µM [falling, partial curve]",
COc1ccc(C(=O)NC(C)CCc2ccccc2)cc1 (configuration not stated),"5.01 µM [rising, full curve]",
CCC(=NCc1ccco1)c1c(C(F)(F)F)[nH]n(-c2nc3ccccc3s2)c1=O,"8.2 µM [falling, partial curve]",

SMILES,AC50 [1],AC50 [2]
COc1cc(N2CCCC2)c(OC)cc1/C=C1/NC(=S)NC1=O,"20.6 µM [rising, single point]",
CC(C)OCCCNC(=O)CCC(=O)NNc1nc2ccccc2c2nc(-c3ccccc3)nn12,"6.51 µM [rising, single point]",
CC(NC(=O)C1CC12CCC2)c1ccccc1 (configuration not stated),"0.366 µM [rising, full curve, poor fit]",
CC(C)(C)[C@@H]1COC(=O)[C@H](Cc2ccc(F)cc2)C/C=C\C[C@@H](CC(=O)N(CCO)Cc2ccccc2)C(=O)N1,"6.51 µM [falling, single point]",
CN1CCN(C(=O)c2cc(-c3ccccc3)on2)CC1,"32.6 µM [falling, single point]",
Cc1cc(/C=C2\SC(=O)NC2=O)c(C)n1-c1ccc(N(C)C)cc1,"12.6 µM [rising, partial curve]",
CCc1cc2c(N3CCN(c4nnc(CC)s4)CC3)ncnc2s1,"11.2 µM [falling, single point]",
O=C(NNc1ccccc1Br)C(O)(c1cccc(C(F)(F)F)c1)c1cccc(C(F)(F)F)c1,"29.1 µM [falling, single point]",
COc1ccc(N2CCN(CCC(N)=O)CC2)cc1,"18.4 µM [rising, single point]",
CC1Cc2ccccc2N1C(=O)CSc1nnc(Cc2ccccc2)n1CCc1ccccc1 (configuration not stated),"32.6 µM [falling, single point]",
Cc1c(Cl)cccc1NC(=S)NN,"35.5 µM [falling, single point]",
Cc1ccc(S(=O)(=O)NC(CN2CCOCC2)=NCCNS(=O)(=O)c2ccccc2)cc1,"29.1 µM [falling, single point]",
COc1ccc(NC(=O)/C(Cl)=C(/Cl)S(=O)Cc2ccccc2Cl)cn1 (configuration not stated),"3.98 µM [falling, full curve]",
CCOc1ccc(OCCNC(=O)c2cc(C3CC3)nc3c2cnn3C(C)C)cc1,"4.11 µM [falling, partial curve]",
CCOC(=O)c1sc(NC(=O)c2ccccc2OC)nc1C,"0.058 µM [falling, full curve]",
Cc1occc1-c1nnc(SCC(=O)Nc2ccccn2)o1,"35.5 µM [falling, single point]",
Cc1ccc(C(=O)OCC(=O)c2ccc(Cl)s2)s1,"16.4 µM [rising, partial curve]",
O=C(COc1ccc(C(=O)c2ccc(F)cc2)cc1)Nc1cccc(S(=O)(=O)N2CCOCC2)c1,"16.4 µM [falling, single point]",
O=C(c1cn(-c2ccccc2)nc1-c1ccccc1)N1CCOCC1,"14.1 µM [rising, partial curve, poor fit]",
Cc1ccccc1Nc1cc(C(=O)NCC2CCCO2)c2ccccc2n1 (configuration not stated),"7.94 µM [falling, partial curve]",

# Rewritten with tabs: 2 of the compounds above
SMILES	AC50 [1]	AC50 [2]
Cc1occc1-c1nnc(SCC(=O)Nc2ccccn2)o1	35.5 µM [falling, single point]	
Cc1ccc(C(=O)OCC(=O)c2ccc(Cl)s2)s1	16.4 µM [rising, partial curve]	
